Laboratory results: PMC9998502 (Frontiers in Pharmacology, 2023)

Experiment: peptide made by a vendor
Details: whole synthesis, analytical RP-HPLC

Compared with “H-Y[d(β3hA)]FF-NH2 (N-terminus assumed; SMILES C[C@H](CC(=O)N[C@@H](Cc1ccccc1)C(=O)N[C@@H](Cc1ccccc1)C(N)=O)NC(=O)[C@@H](N)Cc1ccc(O)cc1)”, “H-[Dmt][d(β3hA)]FF-NH2 (N-terminus assumed; SMILES Cc1cc(O)cc(C)c1C[C@H](N)C(=O)N[C@H](C)CC(=O)N[C@@H](Cc1ccccc1)C(=O)N[C@@H](Cc1ccccc1)C(N)=O)” is lower in “final HPLC purity” value: 97% for the first, 96% for the second.

First: PEPTIDE1{Y.P.[Rb2Nal].F.[am]}$$$$V2.0
Second: PEPTIDE1{Y.P.[Rb3Nal].F.[am]}$$$$V2.0
The “final HPLC purity” value of the first is higher: 97% for the first, 96% for the second.

Compared with PEPTIDE1{Y.[D-Pip].F.F.[am]}$$$$V2.0, PEPTIDE1{Y.[RNip].F.F.[am]}$$$$V2.0 is higher in “final HPLC purity” value: 97% for the first, 98% for the second.

First: PEPTIDE1{Y.[Rb2Ala].F.F.[am]}$$$$V2.0
Second: PEPTIDE1{[Dmt].P.F.F.[am]}$$$$V2.0
The “final HPLC purity” value of the first is lower: 96% for the first, 97% for the second.

Going from “PEPTIDE1{[Dmt].P.[Rb2Nal].F.[am]}$$$$V2.0” to “PEPTIDE1{[Dmt].P.[Rb3Nal].F.[am]}$$$$V2.0”, the “final HPLC purity” value rises from 96% to 98%.

Compared with “PEPTIDE1{[Dmt].[D-Pip].F.F.[am]}$$$$V2.0”, PEPTIDE1{[Dmt].[RNip].F.F.[am]}$$$$V2.0 is higher in “final HPLC purity” value: 96% for the first, 98% for the second.

For “PEPTIDE1{[Dmt].[Rb2Ala].F.F.[am]}$$$$V2.0”, the “final HPLC purity” value was 97%.

HELM strings list residues between dots; [ac] is acetyl, [am] amide, other brackets name non-standard units. Non-standard residues stand in square brackets, D forms with d. Dmt = Cc1cc(O)cc(C)c1C[C@H](N)C(=O)O; d(β3hA) = C[C@@H](N)CC(=O)O
